Earlier results, collected in patent US9662388B2, “Methods and systems for treating cell proliferation disorders using plasmonics enhanced photospectral therapy (PEPST) and exciton-plasmon enhanced phototherapy (EPEP)” (Duke University, priority 2008, dated 2017).
Several values for one entry are separate records, joined by “and”; a condition that tells them apart may be missing. Identical values can stand only once. At least one structure is not confirmed: it was looked up by name or label, or the drawing left a doubt.

Conditions: cited from earlier work

Row | SMILES | Excitation Max. | Emission Max.
1 | NC(=O)C1=CN([C@@H]2O[C@H](COP(=O)(O)OP(=O)(O)OC[C@H]3O[C@@H](n4cnc5c(N)ncnc54)[C@H](OP(=O)(O)O)[C@@H]3O)[C@@H](O)[C@H]2O)C=CC1 [reduced nicotinamide dinucelotide phosphate] | 336 nm | –
2 | NC(=O)C1=CN([C@@H]2O[C@H](COP(=O)(O)OP(=O)(O)OC[C@H]3O[C@@H](n4cnc5c(N)ncnc54)[C@H](O)[C@@H]3O)[C@@H](O)[C@H]2O)C=CC1 [reduced nicotinamide dinucelotide] | 290 nm and 351 nm | 440 nm and 460 nm
